# Test results from patent US10550142B2, “Quercetin-based compound” (AMOREPACIFIC CORPORATION, priority 2016, dated 2020).
# Sequences of proteins named here, by UniProt entry; tags and fusion partners are left off. Residues count along the entry.
# UniProt P05067, 672-713 limits assumed: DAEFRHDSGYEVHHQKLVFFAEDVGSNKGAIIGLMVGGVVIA
# At least one compound was matched to its structure with a doubt left.
# Target: T1, β-amyloid (Aβ1-42) (Homo sapiens, UniProt P05067)
# T1 construct: β-amyloid (Aβ1-42, AnaSpec Inc, USA) was obtained; purchased AnaSpec Inc, USA
# Assay: Beta-amyloid aggregation inhibition, fluorescence analysis (Thioflavin T assay)
# Type: biochemical
# Conditions: compound 10 μM; Aβ1-42 0.1 mg/ml; 37° C., 150 minutes
# Experimental: The beta-amyloid aggregation inhibitory effect of quercetin 3-O-[3-O″-(E)-p-coumaroyl][β-D-glucopyranosyl-(1→3)-O-α-L-rhamnopyranosyl-(1→6)-O-β-D-glucopyranoside] and quercetin 3-O-[3-O″-(E)-p-coumaroyl][α-L-rhamnopyranosyl-(1→6)-O-β-D-glucopyranoside] was determined by fluorescence analysis (Thioflavin T assay). Specifically, β-amyloid (Aβ1-42, AnaSpec Inc, USA) was obtained and used at a concentration of 0.1 mg/ml. It was stored at −80° C. prior to use. Each of morin (20 μM), phenol red (20 μM), quercetin 3-O-[3-O″-(E)-p-coumaroyl][β-D-glucopyranosyl-(1→3)-O-α-L-rhamnopyranosyl-(1→6)-O-β-D-glucopyranoside] (1 mg/ml), and quercetin 3-O-[3-O″-(E)-p-coumaroyl][α-L-rhamnopyranosyl-(1→6)-O-β-D-glucopyranoside] (1 mg/ml) was diluted to these concentrations in DMSO. In order to determine the degree of inhibition of Aβ1-42 aggregation, each compound at the above concentration was diluted to 10 μM in 50 μL of 0.01 M sodium phosphate buffer solution. Then, 40 μL of 0.1 mg/ml Aβ1-42 was added thereto, followed by addition of 10 μL of 2 mM Thioflavin T. The fluorescence was then measured with a fluorescence spectrometer (RF-5300PC, SHIMADZU CORPORATION, Japan) at 37° C. and intervals of 5 minutes for 150 minutes. In the table above, “RFU” denotes relative fluorescence unit, and “increased RFU” indicates the amount of aggregated β-amyloid. […]
structure (smiles),measurement,value
"O=S1(=O)OC(c2ccc(O)cc2)(c2ccc(O)cc2)c2ccccc21 [Phenol Red, phenol red, reference compound]",Increased RFU (amount of aggregated β-amyloid),13655 RFU
